Data as given in article PMC12071843.
No constants are given. Whether binding was seen depends on the method and setting. Binding seen in cells or lysates may run through a third protein. Here binding means that the protein was enriched with, or labelled near, the bait; the list need not be complete.

Amino acid sequences for entries named in this document (tags omitted). Residues count along the entry.
UniProt P02100: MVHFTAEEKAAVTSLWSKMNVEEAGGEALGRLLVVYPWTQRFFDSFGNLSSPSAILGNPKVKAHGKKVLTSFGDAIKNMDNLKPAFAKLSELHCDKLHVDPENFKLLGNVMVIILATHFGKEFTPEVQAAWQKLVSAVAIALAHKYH
UniProt P35579: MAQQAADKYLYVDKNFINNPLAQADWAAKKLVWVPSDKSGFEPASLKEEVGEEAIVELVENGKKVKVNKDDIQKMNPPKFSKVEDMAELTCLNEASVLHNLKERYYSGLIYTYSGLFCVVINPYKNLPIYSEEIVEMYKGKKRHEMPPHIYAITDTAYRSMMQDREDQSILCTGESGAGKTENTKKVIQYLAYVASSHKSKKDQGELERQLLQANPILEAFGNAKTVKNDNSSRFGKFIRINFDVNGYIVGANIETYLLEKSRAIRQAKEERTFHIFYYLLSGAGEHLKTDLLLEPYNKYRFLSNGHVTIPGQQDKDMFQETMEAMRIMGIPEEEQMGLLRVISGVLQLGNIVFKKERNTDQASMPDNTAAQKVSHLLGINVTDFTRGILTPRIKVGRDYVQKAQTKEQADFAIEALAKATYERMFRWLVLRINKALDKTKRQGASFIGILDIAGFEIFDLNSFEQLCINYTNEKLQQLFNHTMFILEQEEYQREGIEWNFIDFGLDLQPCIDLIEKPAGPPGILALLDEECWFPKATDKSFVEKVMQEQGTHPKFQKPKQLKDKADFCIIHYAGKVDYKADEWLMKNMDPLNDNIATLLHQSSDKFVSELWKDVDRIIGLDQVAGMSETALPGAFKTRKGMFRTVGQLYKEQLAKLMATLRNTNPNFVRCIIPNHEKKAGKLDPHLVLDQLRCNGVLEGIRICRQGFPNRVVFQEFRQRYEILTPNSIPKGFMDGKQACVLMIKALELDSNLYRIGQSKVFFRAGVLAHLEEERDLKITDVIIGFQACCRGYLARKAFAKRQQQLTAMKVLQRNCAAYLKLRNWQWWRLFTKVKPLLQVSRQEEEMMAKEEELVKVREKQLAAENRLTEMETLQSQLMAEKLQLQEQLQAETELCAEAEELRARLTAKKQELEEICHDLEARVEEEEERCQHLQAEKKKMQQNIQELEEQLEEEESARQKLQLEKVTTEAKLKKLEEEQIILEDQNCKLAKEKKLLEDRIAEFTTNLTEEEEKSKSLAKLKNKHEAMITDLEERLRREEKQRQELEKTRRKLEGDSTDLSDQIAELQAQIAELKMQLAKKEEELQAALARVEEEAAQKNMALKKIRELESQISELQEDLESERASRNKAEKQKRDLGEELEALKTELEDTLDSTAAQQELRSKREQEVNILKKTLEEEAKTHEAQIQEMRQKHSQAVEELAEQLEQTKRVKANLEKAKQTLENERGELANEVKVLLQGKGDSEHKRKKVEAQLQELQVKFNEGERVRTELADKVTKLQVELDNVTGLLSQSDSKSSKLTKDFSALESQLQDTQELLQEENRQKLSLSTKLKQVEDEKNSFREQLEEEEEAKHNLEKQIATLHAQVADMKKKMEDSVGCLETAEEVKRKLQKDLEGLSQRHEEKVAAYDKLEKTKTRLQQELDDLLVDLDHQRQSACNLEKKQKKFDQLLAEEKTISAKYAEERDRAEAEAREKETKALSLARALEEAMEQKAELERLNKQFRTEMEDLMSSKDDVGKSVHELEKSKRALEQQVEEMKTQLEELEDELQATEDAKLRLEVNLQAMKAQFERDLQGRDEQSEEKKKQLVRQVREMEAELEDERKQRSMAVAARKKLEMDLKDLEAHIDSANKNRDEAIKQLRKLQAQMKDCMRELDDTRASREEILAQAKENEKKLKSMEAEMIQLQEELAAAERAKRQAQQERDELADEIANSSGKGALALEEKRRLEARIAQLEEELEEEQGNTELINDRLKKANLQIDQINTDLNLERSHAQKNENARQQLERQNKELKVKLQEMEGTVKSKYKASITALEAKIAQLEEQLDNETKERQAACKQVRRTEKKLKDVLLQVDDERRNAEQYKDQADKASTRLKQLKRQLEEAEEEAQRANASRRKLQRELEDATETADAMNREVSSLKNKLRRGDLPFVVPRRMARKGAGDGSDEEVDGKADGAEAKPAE
UniProt P28799, residues 18-593: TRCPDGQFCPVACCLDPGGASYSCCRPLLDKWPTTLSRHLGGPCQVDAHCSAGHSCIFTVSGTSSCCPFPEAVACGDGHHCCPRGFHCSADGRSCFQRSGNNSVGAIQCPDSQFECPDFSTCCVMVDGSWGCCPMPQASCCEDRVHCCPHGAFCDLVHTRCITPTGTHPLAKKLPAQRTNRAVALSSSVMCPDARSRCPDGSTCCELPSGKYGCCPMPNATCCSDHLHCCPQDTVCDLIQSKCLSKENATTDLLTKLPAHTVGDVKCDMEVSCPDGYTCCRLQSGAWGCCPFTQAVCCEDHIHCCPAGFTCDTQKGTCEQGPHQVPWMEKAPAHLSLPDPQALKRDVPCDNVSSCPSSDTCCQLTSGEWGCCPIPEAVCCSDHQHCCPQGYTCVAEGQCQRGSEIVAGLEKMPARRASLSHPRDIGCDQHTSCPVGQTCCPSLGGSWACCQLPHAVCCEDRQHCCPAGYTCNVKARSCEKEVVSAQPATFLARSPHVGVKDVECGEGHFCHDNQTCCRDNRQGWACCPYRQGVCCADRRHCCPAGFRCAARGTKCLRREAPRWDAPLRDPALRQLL
UniProt O75022, residues 24-631: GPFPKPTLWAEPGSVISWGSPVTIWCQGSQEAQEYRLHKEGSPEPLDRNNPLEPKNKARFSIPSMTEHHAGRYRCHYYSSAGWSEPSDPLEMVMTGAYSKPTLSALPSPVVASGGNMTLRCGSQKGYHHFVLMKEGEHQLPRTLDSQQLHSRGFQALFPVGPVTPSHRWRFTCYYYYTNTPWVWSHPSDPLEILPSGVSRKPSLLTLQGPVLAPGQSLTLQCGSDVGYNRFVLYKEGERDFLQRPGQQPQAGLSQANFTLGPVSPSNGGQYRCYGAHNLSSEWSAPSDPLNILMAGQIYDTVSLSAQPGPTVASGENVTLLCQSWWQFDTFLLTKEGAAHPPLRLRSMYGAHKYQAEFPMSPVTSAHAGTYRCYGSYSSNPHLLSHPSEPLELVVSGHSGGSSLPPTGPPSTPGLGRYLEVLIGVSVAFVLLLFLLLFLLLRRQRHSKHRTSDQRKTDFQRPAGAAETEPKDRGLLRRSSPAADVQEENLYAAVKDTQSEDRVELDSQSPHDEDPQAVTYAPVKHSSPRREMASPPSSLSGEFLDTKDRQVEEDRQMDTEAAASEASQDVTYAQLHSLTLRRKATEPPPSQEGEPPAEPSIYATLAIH
UniProt O14950: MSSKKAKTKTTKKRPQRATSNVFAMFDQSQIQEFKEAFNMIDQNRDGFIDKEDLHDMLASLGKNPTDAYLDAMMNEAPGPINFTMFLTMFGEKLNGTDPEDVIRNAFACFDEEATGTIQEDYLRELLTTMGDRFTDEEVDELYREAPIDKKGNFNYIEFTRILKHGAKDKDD
UniProt P60660: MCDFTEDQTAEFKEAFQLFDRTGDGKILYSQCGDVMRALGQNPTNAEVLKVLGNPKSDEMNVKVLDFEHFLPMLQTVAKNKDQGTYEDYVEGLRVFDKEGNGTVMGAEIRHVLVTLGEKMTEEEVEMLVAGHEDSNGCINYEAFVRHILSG
UniProt Q99700: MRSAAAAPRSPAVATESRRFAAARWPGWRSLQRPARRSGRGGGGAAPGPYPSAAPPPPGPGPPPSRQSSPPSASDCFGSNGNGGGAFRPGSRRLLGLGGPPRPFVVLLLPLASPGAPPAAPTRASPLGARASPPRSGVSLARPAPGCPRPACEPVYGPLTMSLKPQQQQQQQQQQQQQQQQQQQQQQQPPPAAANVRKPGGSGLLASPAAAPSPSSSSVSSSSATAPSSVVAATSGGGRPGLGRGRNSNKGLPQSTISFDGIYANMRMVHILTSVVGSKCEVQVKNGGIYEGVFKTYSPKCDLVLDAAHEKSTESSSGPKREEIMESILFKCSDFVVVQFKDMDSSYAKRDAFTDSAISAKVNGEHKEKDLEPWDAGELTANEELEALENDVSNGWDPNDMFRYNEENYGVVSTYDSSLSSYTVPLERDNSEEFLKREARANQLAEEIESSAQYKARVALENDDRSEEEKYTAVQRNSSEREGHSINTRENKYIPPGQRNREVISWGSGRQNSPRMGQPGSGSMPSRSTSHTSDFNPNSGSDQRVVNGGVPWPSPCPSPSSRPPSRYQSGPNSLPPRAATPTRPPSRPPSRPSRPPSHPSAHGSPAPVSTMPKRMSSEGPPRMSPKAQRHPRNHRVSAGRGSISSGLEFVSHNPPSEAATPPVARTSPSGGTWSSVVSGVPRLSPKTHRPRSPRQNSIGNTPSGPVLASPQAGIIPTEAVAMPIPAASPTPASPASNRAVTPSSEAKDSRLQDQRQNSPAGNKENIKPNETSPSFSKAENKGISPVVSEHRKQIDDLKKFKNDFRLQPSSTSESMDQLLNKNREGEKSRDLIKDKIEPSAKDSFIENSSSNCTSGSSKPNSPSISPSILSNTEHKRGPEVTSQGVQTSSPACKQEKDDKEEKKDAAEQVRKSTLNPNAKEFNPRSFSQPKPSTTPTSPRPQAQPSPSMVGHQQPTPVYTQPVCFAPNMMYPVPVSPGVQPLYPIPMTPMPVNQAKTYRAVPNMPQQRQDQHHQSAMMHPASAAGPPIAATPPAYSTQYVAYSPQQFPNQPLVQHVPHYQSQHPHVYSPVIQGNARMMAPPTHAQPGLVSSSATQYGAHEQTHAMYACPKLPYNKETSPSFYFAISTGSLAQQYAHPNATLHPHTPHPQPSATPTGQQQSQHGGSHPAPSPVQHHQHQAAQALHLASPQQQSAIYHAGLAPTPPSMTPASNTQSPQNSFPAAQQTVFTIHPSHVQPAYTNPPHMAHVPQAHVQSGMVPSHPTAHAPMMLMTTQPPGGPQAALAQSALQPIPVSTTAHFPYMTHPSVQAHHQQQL
UniProt Q9BYN0: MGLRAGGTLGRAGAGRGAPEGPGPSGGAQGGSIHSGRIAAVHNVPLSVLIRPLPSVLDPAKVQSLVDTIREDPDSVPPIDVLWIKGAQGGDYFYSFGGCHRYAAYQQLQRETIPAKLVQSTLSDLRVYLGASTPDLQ
UniProt P48741: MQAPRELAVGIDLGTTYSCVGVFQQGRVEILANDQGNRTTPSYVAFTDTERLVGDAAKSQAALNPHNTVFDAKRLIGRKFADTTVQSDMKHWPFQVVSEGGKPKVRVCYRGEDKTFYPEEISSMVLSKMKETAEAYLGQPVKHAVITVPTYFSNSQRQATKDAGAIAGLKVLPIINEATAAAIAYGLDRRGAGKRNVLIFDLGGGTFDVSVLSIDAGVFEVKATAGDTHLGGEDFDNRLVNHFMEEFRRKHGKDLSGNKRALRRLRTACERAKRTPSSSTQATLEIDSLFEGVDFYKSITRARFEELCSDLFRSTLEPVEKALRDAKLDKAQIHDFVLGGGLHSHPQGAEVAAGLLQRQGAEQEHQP
UniProt A5A3E0: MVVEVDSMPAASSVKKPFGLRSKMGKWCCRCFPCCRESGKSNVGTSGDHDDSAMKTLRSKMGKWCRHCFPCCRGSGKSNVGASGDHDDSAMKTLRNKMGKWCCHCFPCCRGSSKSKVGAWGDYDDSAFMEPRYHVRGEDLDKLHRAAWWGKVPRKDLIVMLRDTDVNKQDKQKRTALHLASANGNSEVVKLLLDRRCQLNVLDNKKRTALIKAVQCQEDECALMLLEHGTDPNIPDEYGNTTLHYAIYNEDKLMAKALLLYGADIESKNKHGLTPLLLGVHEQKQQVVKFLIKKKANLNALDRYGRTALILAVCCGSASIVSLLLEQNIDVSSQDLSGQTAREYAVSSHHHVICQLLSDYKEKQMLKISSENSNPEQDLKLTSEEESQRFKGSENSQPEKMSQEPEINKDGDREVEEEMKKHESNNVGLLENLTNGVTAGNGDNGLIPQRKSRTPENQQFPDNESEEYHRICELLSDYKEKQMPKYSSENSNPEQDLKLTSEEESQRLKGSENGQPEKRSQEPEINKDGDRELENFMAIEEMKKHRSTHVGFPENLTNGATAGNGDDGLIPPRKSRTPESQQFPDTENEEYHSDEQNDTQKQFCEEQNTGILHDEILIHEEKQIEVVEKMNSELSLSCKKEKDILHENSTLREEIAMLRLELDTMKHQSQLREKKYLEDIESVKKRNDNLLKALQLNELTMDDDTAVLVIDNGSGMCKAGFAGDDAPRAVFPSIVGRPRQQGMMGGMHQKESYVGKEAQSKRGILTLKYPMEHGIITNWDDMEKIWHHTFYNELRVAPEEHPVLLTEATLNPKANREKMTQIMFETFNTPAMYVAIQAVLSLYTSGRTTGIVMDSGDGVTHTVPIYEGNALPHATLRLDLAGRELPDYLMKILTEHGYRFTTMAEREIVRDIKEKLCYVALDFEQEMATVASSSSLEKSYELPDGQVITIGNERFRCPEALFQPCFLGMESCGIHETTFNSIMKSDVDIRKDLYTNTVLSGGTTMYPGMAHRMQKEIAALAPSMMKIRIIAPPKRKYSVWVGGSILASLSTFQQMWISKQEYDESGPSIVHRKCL

Assays:
[1] = target: Matrix metalloproteinase 3 (human (endogenous in OVCAR3CIS)) (UniProt P08254); assay: affinity purification with mass spectrometry; extracellular MMP3: supernatants of serum-free OVCAR3CIS cells, untreated or cisplatin-treated, pre-cleared on protein A/G magnetic beads, anti-MMP3 antibody (Abcam) 10 ug/200 ug protein at 4 °C overnight, protein A/G magnetic beads (Pierce MS-compatible Magnetic IP Kit), eluate by LC-MS/MS
[2] = target: Matrix metalloproteinase 3 (human (endogenous in OVCAR3CIS)) (UniProt P08254); assay: affinity purification with mass spectrometry; intracellular MMP3: protein of serum-free OVCAR3CIS cells, untreated or cisplatin-treated, pre-cleared on protein A/G magnetic beads, anti-MMP3 antibody (Abcam) 10 ug/200 ug protein at 4 °C overnight, protein A/G magnetic beads (Pierce MS-compatible Magnetic IP Kit), eluate by LC-MS/MS; listed proteins consistent in at least two replicates

| binding [1] | binding [2] | Substance |
| --- | --- | --- |
| binds | – | Hemoglobin subunit epsilon (from UniProt P02100 1-147) |
| binds | – | Alpha-protein kinase 2 (from UniProt Q86TB3 1-2170) |
| – | binds | Clathrin heavy chain 1 (from UniProt Q00610 1-1675) |
| binds | – | Immunoglobulin lambda-1 light chain (from UniProt P0DOX8 1-216) |
| binds | – | Spectrin alpha chain, non-erythrocytic 1 (from UniProt Q13813 1-2472) |
| – | binds | Myosin-9 (from UniProt P35579 1-1960) |
| binds | – | Heterogeneous nuclear ribonucleoprotein A/B (from UniProt Q99729 1-332) |
| binds | binds | Filaggrin (from UniProt P20930 1-4061) |
| binds | – | POTE ankyrin domain family member E (from UniProt Q6S8J3 1-1075) |
| binds | binds | Uncharacterized protein C18orf63 (from UniProt Q68DL7 1-685) |
| – | binds | BTB/POZ domain-containing protein KCTD3 (from UniProt Q9Y597 1-815) |
| binds | binds | Progranulin (from UniProt P28799 18-593) |
| binds | – | Protein FAM228B (from UniProt P0C875 1-324) |
| binds | – | Leukocyte immunoglobulin-like receptor subfamily B member 3 (from UniProt O75022 24-631) |
| binds | – | SWI/SNF-related matrix-associated actin-dependent regulator of chromatin subfamily D member 2 (from UniProt Q92925 1-531) |
| – | binds | Myosin regulatory light chain 12B (from UniProt O14950 1-172) |
| – | binds | Stress-70 protein, mitochondrial (from UniProt P38646 47-679) |
| – | binds | Myosin light polypeptide 6 (from UniProt P60660 1-151) |
| binds | binds | Ataxin-2 (from UniProt Q99700 1-1313) |
| binds | – | Retinitis pigmentosa 1-like 1 protein (from UniProt Q8IWN7 1-2400) |
| – | binds | Sulfiredoxin-1 (from UniProt Q9BYN0 1-137) |
| – | binds | High mobility group protein HMGI-C (from UniProt P52926 1-109) |
| binds | binds | Coiled-coil domain-containing protein 22 (from UniProt O60826 1-627) |
| binds | – | Putative heat shock 70 kDa protein 7 (from UniProt P48741 1-367) |
| – | binds | Myosin-10 (from UniProt P35580 1-1976) |
| binds | binds | Albumin (from UniProt P02768 25-609) |
| binds | – | Laminin subunit alpha-5 (from UniProt O15230 36-3695) |
| binds | – | POTE ankyrin domain family member F (from UniProt A5A3E0 1-1075) |
| – | binds | Glyceraldehyde-3-phosphate dehydrogenase (from UniProt P04406 1-335) |
